Library screening results

Amino acid sequences for entries named in this document (tags omitted).
UniProt E9BF75, entry or part of it: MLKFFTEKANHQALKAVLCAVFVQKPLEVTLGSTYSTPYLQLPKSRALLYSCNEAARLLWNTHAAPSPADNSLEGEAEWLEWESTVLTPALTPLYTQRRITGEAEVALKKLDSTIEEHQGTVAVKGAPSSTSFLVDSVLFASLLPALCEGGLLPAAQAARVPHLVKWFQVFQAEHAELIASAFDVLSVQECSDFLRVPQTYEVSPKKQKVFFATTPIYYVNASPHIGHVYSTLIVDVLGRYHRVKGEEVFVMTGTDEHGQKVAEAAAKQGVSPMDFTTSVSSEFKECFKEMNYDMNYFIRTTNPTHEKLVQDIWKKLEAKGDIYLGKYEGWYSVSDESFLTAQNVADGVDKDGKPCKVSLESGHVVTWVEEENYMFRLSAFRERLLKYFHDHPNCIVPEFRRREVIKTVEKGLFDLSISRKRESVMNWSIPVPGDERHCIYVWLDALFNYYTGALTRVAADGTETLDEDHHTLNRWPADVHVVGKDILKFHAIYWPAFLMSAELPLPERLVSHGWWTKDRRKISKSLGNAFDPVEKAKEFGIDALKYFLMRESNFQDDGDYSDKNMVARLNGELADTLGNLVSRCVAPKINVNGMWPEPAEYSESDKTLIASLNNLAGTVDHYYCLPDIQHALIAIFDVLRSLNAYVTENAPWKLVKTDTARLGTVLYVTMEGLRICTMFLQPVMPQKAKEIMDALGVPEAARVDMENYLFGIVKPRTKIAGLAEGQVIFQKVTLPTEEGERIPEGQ

Mtb heat-shock: 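Assay on Mycobacterium tuberculosis, filed only as a heat shock assay from Cornell; the read-out is not stated. The concentration is filed as 10 mM, unlikely as a test dose, so the dose is not known. Higher reads as stronger inhibition (inferred: compounds with an IC50 in retests scored well above the rest). Size under these conditions: about 69,000 compounds, about 930 of them at 50% or above in at least one test.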
Mtb growth Cornell: 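Whole-cell assay for inhibitors of Mycobacterium tuberculosis growth, labelled Cornell in the record; the read-out is not stated. The concentration is filed as 10 mM, unlikely as a test dose, so the dose is not known. The record gives no direction; compounds strong in two other growth screens of this library score well above the rest, so higher reads as stronger inhibition. Of about 53,000 compounds tested this way, about 900 (1.7%) reached 50% or more in at least one test.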
LdMetRS: 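Primary screen of methionyl-tRNA synthetase; the read-out is not stated. Target: Methionyl-tRNA synthetase (putative), Leishmania donovani (UniProt E9BF75). The test concentration is not given. The values are filed as inhibition. Of about 68,000 compounds tested this way, about 24 (0.035%) reached 50% or more in at least one test.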

Results are percentages, as filed.
The controls that fix the scale are not given in the record; negative values are as filed.
This is an unselected part of the compounds tested.
A dash means the value is not listed here; it may have been measured.

compound	Mtb heat-shock	Mtb growth Cornell	LdMetRS
Cc1ccc(N2CC3(CCN(S(=O)(=O)C4CC4)C3)C2)nn1	-25.08%	-22.21%	12.2%
CN(C)C1CC2(CCN(C(=O)c3csnn3)CC2)c2ccccc21 (stereo not shown)	-	-	9.589%
CCS(=O)(=O)NCC1OCCc2cn(CC3CCOCC3)nc21 (stereo not shown)	-19.18%	-8.564%	4.38%
O=C(NCc1cc[nH]n1)N1CCCCC(N2CCCC2)C1 (stereo not shown)	-28.23%	14.7%	17.32%
N#Cc1ccccc1N1CC2(CCCCN2CC2CC2)CC1=O (stereo not shown)	-	-	5.226%
COc1cccc(OC)c1CNC(Cc1ccsc1)c1ccc(C)cn1 (stereo not shown)	103.5%	62.45%	18.9%
Cc1cnc(CNC2CCc3nc(C(C)C)nn3C2)cn1 (stereo not shown)	13.89%	-17.9%	11.27%
Cc1cccc(N2CCc3ncc(CNc4ccccn4)n3CC2)n1.O=C(O)C(F)(F)F.O=C(O)C(F)(F)F	12.64%	-	-
CC(C)N(CCO)C(=O)C1CCC(=O)N(Cc2ccc(Cl)cc2)C1 (stereo not shown)	-0.03382%	-	13.64%
COCCN1CCC(NCc2cc(F)ccc2F)C1 (stereo not shown)	-13.86%	-	-3.409%
COc1cccc(C(=O)N(C)Cc2ncc(C)c(OC)c2C)c1OC	2.375%	25.02%	12.71%
Cc1nccc(C2(C)CCCNC2)n1 (stereo not shown)	-	-	4.07%
CC(C)c1nnc2n1CC(CNCc1nc3ccccc3o1)CC2 (stereo not shown)	-11.23%	9.077%	-4.218%
CCN1CCc2c(CNC(=O)c3nccn3C)cncc2C1	-	-	11.2%
COc1ccc(CN2CCCC3(CCN(c4ccsc4)C3=O)C2)cc1 (stereo not shown)	-	-	17.07%
CCn1c(C)nnc1SCCNC(=O)c1cnc(N(C)C)nc1C	-3.191%	-4.916%	16.32%
O=C(c1ccncc1)N1CC2(CCNCC2)c2cc(Cl)ccc21	-	-	14.42%
CCc1nc(CN2CCCN(c3ncnc4ccsc34)CC2)no1	-1.125%	-	28.57%
Cn1ccnc1C1CCN(CCN2CCOCC2)CC1	-24.1%	17.09%	11.11%
O=C1OCCN1CC(=O)N1C[C@H]2CC[C@@H]1CN(Cc1cscn1)C2	-	-	5.81%
c1cc(CN2CCC3(CC2)COC(COCC2CC2)C3)co1 (stereo not shown)	0.7618%	13.28%	11.2%
CCOCC1CN(S(=O)(=O)CC)Cc2nn(C)cc21 (stereo not shown)	1.006%	-36.05%	18.49%
CN(C(=O)c1cccc(C(=O)NCC(F)(F)F)c1)c1ccccc1	-4.965%	-1.14%	3.937%
CCn1c(CN(C)Cc2csc(C)n2)nc2cc(F)ccc21	69.38%	33.36%	20.3%
Cc1nc(C)n(C2CCCN(C(=O)CCCOc3ccccc3)C2)n1 (stereo not shown)	12.77%	12.44%	5.263%
CCn1c(C)nnc1CN(C)C1CCN(Cc2cnc(C)cn2)C1 (stereo not shown)	-2.462%	-6.046%	-0.3717%
CC(Nc1ncnc2sccc12)c1cnn(C)c1 (stereo not shown)	7.8%	12.21%	17.79%
CC(C)(C)c1ncc(C(=O)N2CCC(N3CCSCC3)CC2)c(O)n1	5.323%	2.216%	8.824%
Cc1cncc(NCC(O)c2ccco2)n1 (stereo not shown)	1.041%	-	7.326%
COc1ccc(C(=O)NCCN2CCC(c3cccs3)CC2)cc1OC	-16.58%	26.99%	16.34%
Cc1cccc(C(=O)N(C)Cc2cc(Br)cs2)n1	10.11%	18.31%	16.9%
Cc1nc(NC2CC(C)(C)NC(C)(C)C2)c2c(n1)c(C)nn2C	13.74%	35.24%	14.87%
O=C(O)C(F)(F)F.O=S(=O)(C1CC1)N1CCc2ncnc(N3CCCC3)c2CC1	13.4%	4.828%	-
CN(C)S(=O)(=O)c1ccc(OCCNCCn2cccn2)cc1	-26.66%	-	3.472%
CC(=O)N(C)Cc1ccccc1NC(=O)c1ccccc1C	16.77%	-12.16%	7.368%
CCCNC(=O)c1nn(CC)cc1NC(=O)c1c(C)nn(C)c1C	9.746%	47.73%	11.27%
CCOCC1CN(Cc2ccc(F)cc2)Cc2nn(CC3CC3)cc21 (stereo not shown)	-26.57%	25.91%	17%
COc1ccc(C(=O)N2CCCC(CNS(C)(=O)=O)C2)cc1F (stereo not shown)	5.516%	15.4%	12.42%
[H][C@]12C[C@@H](Cn3cncn3)N(C(C)=O)[C@@]1([H])CCN(Cc1nccs1)C2	-7.229%	-13.74%	-
Cc1ccc(CN2CCn3cc(CN(C)Cc4ccco4)nc3C2)o1	-	-	19.61%
CC(=O)N1CCCN(C(=O)NCCc2ccc(Cl)s2)CC1	-16%	-	14.58%
CSc1nc2ncc3c(=O)n(CCN4CCCCC4)ccc3n2n1	-5.393%	9.454%	12.2%
O=C(Cc1cn2ccccc2n1)N1CCCC(n2ccnc2)C1 (stereo not shown)	-33.24%	-	24.59%
CCc1cc(O)nc(C2CCCN2C(=O)c2cccnc2)n1 (stereo not shown)	-24.09%	-	3.846%

The first 3 entries again:

compound	Mtb heat-shock	Mtb growth Cornell	LdMetRS
Cc1ccc(N2CC3(CCN(S(=O)(=O)C4CC4)C3)C2)nn1	-25.08%	-22.21%	12.2%
CN(C)C1CC2(CCN(C(=O)c3csnn3)CC2)c2ccccc21 (stereo not shown)	-	-	9.589%
CCS(=O)(=O)NCC1OCCc2cn(CC3CCOCC3)nc21 (stereo not shown)	-19.18%	-8.564%	4.38%

The values are deposited in ChEMBL (CHEMBL3988442, “University of Dundee, Small-Polar-MMV Screening Library” (2021)).